From patent US20210206856A1
These are yes or no findings as the source states them, for the method shown. Binding can be weak; no strength is given. Values belong to the binder of their own block, whether it stands above or below them.

Legend:
[1] = target: cyno MAdCAM protein (cyno); assay: Octet
[2] = target: cyno MAdCAM protein (cyno); assay: ELISA

B1: MAdCAM Antibody Table 1 Clone 20 (scFv)
scFv: EVQLLESGGGLVQPGGSLRLSCAASGFTFDDYAMHWVRQAPGKGLEWVSYIDTSSSHLYYADSVKGRFTISRDNSKNTLYLQMNSLRAEDTAVYYCARDEAAAGYYGMDVWGQGTTVTVSSGGGGSGGGGSGGGGSGGGGSDIQMTQSPSSLSASVGDRVTITCQAGQDISNYLNWYQQKPGKAPKLLIYDASNLETGVPSRFSGSGSGTDFTLTISSLQPEDFATYYCQQTYSTPITFGQGTKLEIK
binding [1]: binds

B2: MAdCAM Antibody Table 1 Clone 55 (scFv)
scFv: QVQLVQSGAEVKKPGASVKVSCKASGYTFTSYYMHWVRQAPGQGLEWMGIIDPSGGSTSYAQKFQGRVTMTRDTSTSTVYMELSSLRSEDTAVYYCAREEWSSGGVGYFDYWGQGTLVTVSSGGGGSGGGGSGGGGSGGGGSDIQMTQSPSSLSASVGDRVTITCRASQGISSYLAWYQQKPGKAPKLLIYATSSLQTGVPSRFSGSGSGTDFTLTISSLQPEDFATYYCQQTYSIPITFGQGTRLEIK
binding [2]: binds

B3: MAdCAM Antibody Table 1 Clone 56 (scFv)
scFv: EVQLLESGGGLVQPGGSLRLSCAASGFTFDDYAMHWVRQAPGKGLEWVSAISGGGEDTYYADSVKGRFTISRDNSKNTLYLQMNSLRAEDTAVYYCARDASYGGNYGMDVWGQGTTVTVSSGGGGSGGGGSGGGGSGGGGSDIQMTQSPSSLSASVGDRVTITCQASQDIRNYLNWYQQKPGKAPKLLIYKASSLESGVPSRFSGSGSGTDFTLTISSLQPEDFATYYCQQANSYPVTFGGGTKVEIK
binding [2]: binds

B4: MAdCAM Antibody Table 1 Clone 57 (scFv)
scFv: QVQLVQSGAEVKKPGASVKVSCKASGYTFTSYYMHWVRQAPGQGLEWMGIINPSGGSTSYAQKFQGRVTMTRDTSTSTVYMELSSLRSEDTAVYYCARDSVAGTGGRYYGMDVWGQGTLVTVSSGGGGSGGGGSGGGGSGGGGSDIQMTQSPSSLSASVGDRVTITCRASQGISNYFAWYQQKPGKAPKLLIYAASSLQGGVPSRFSGSGSGTDFTLTISSLQPEDFATYYCQQSYSLPYTFGQGTKLEIK
binding [2]: binds

B5: MAdCAM Antibody Table 1 Clone 58 (scFv)
scFv: QVQLVQSGAEVKKPGASVKVSCKASGYTFTGYYMHWVRQAPGQGLEWMGIINPSGGNTKYAQKFQGRVTMTRDTSTSTVYMELSSLRSEDTAVYYCTTADYYYYMDVWGKGTTVTVSSGGGGSGGGGSGGGGSGGGGSDIQMTQSPSSLSASVGDRVTITCRASQGISNYLAWYQQKPGKAPKLLIYAASSLQSGVPSRFSGSGSGTDFTLTISSLQPEDFATYYCQQYYSNADFGQGTKVEIK
binding [2]: binds

B6: MAdCAM Antibody Table 2 Clone 2 (antibody, human IgG1, V domains shown)
VH: QVQLVQSGAEVKKPGASVKVSCKASGYPFIGYYLHWVRQAPGQGLEWMGIINPSGGSTSYAQKFQGRVTMTRDTSTSTVYMELSSLRSEDTAVYYCAREGRLSYGMDAWGQGTLVTVSS
VL: DIQMTQSPSSLSASVGDRVTITCRASQSISSYLAWYQQKPGKAPKLLIYGASTLESGVPSRFSGSGSGTDFTLTISSLQPEDFATYYCQQTWGPPFTFGQGTKLEIK
binding [2]: binds

B18: MAdCAM Antibody Table 1 Clone 3 (scFv)
scFv: QVQLVQSGAEVKKPGASVKVSCKASGYPFIGQYLHWVRQAPGQGLEWMGIINPSGGSTSYAQKFQGRVTMTRDTSTSTVYMELSSLRSEDTAVYYCAREGRLSYGMDAWGQGTLVTVSSGGGGSGGGGSGGGGSGGGGSDIQMTQSPSSLSASVGDRVTITCRASQSISSYLAWYQQKPGKAPKLLIYGASTLESGVPSRFSGSGSGTDFTLTISSLQPEDFATYYCQQTWGPPFTFGQGTKLEIK
binding [2]: binds

B19: MAdCAM Antibody Table 1 Clone 8 (scFv)
scFv: EVQLLESGGGLVQPGGSLRLSCAASGFMFGDYAMHWVRQAPGKGLEWVSAISGSGGSTYYADSVKGRFTISRDNSKNTLYLQMNSLRAEDTAVYYCAKDLVVAGIWYFDLWGRGTLVTVSSGGGGSGGGGSGGGGSGGGGSDIQMTQSPSSLSASVGDRVTITCRASQGISNNLNWYQQKPGKAPKLLIYDASSLESGVPSRFSGSGSGTDFTLTISSLQPEDFATYYCQQTHSFPSTFGQGTKLEIK
binding [2]: binds

B20: MAdCAM Antibody Table 1 Clone 10 (scFv)
scFv: QVQLVQSGAEVKKPGASVKVSCKASGYTLTTWYMYWVRQAPGQGLEWMGWINPNRGATNYAQKFQGRVTMTRDTSTSTVYMELSSLRSEDTAVYYCAKGDLWGAMDVWGQGTLVTVSSGGGGSGGGGSGGGGSGGGGSDIQMTQSPSSLSASVGDRVTITCRASDNIGSWLAWYQQKPGKAPKLLIYAASSLQSGVPSRFSGSGSGTDFTLTISSLQPEDFATYYCQQGYSTPPTFGQGTKVEIK
binding [2]: binds

B21: MAdCAM Antibody Table 1 Clone 11 (scFv)
scFv: QVQLVQSGAEVKKPGASVKVSCKASGYTFTTYYMHWVRQAPGQGLEWMGGFDPEDGETIYAQKFQGRVTMTRDTSTSTVYMELSSLRSEDTAVYYCARHAVAGAVGAGYYYYGMDVWGQGTMVTVSSGGGGSGGGGSGGGGSGGGGSDIQMTQSPSSLSASVGDRVTITCRASESISNWLAWYQQKPGKAPKLLIYAASTLQSGVPSRFSGSGSGTDFTLTISSLQPEDFATYYCQQSYSVPFTFGPGTKVDIK
binding [2]: binds

The remaining lines, values ahead:

binding [2]: binds
B7: MAdCAM Antibody Table 2 Clone 3 (antibody, human IgG1, V domains shown)
VH: QVQLVQSGAEVKKPGASVKVSCKASGYPFIGQYLHWVRQAPGQGLEWMGIINPSGGSTSYAQKFQGRVTMTRDTSTSTVYMELSSLRSEDTAVYYCAREGRLSYGMDAWGQGTLVTVSS
VL: DIQMTQSPSSLSASVGDRVTITCRASQSISSYLAWYQQKPGKAPKLLIYGASTLESGVPSRFSGSGSGTDFTLTISSLQPEDFATYYCQQTWGPPFTFGQGTKLEIK

binding [2]: binds
B8: MAdCAM Antibody Table 2 Clone 12 (antibody, human IgG1, V domains shown)
VH: QVQLVQSGAEVKKPGASVKVSCKASGYTLTTWYMYWVRQAPGQGLEWMGWINPNRGATNYAQKFQGRVTMTRDTSTSTVYMELSSLRSEDTAVYYCAKGDLWGAMDVWGQGTLVTVSS
VL: DIQMTQSPSSLSASVGDRVTITCRASDNIGSWLAWYQQKPGKAPKLLIYAASSLQSGVPSRFSGSGSGTDFTLTISSLQPEDFATYYCQQGYSTPPTFGQGTKVEIK

binding [2]: binds
B9: MAdCAM Antibody Table 2 Clone 34 (antibody, human IgG1, V domains shown)
VH: QVQLVQSGAEVKKPGASVKVSCKASGYTFTGYYIHWVRQAPGQGLEWMGWMNPNSGNTGYAQKFQGRVTMTRDTSTSTVYMELSSLRSEDTAVYYCARDPGFLGYCSGGSCYDGWFDPWGQGTLVTVSS
VL: DIQMTQSPSSLSASVGDRVTITCRASQSISSYLHWYQQKPGKAPKLLIYAASSLQSGVPSRFSGSGSGTDFTLTISSLQPEDFATYYCQQSYTAPYTFGQGTKLEIK

binding [2]: binds
B10: MAdCAM Antibody Table 2 Clone 39 (antibody, human IgG1, V domains shown)
VH: QVQLVQSGAEVKKPGASVKVSCKASGYTFTSYYMHWVRQAPGQGLEWMAWMNPNSGNTGYAQKFQGRVTMTRDTSTSTVYMELSSLRSEDTAVYYCARDYDFWSGSLGYWGQGTLVTVSS
VL: DIQMTQSPSSLSASVGDRVTITCRASQGISNYLAWYQQKPGKAPKLLIYAASSLQSGVPSRFSGSGSGTDFTLTISSLQPEDFATYYCQQSYSTPWTFGQGTKVEIK

binding [2]: binds
B11: MAdCAM Antibody Table 2 Clone 43 (antibody, human IgG1, V domains shown)
VH: QVQLVQSGAEVKKPGASVKVSCKASGYTFTSYGISWVRQAPGQGLEWMGWMHPKSGDTGLTQKFQGRVTMTRDTSTSTVYMELSSLRSEDTAVYYCARDTPYYYYGMDVWGQGTTVTVSS
VL: DIQMTQSPSSLSASVGDRVTITCRASQSISSWLAWYQQKPGKAPKLLIYAASSLQSGVPSRFSGSGSGTDFTLTISSLQPEDFATYYCQQSYSVPITFGQGTKVEIK

binding [2]: binds
B12: MAdCAM Antibody Table 2 Clone 46 (antibody, human IgG1, V domains shown)
VH: EVQLLESGGGLVQPGGSLRLSCAASGFSFSSYTMNWVRQAPGKGLEWVSFITSSSRTIYYADSVKGRFTISRDNSKNTLYLQMNSLRAEDTAVYYCARDRRGDYGDSWYFDLWGRGTLVTVSS
VL: EIVMTQSPATLSVSPGERATLSCRASQSVRNYLAWYQQKPGQAPRLLIYGASTRATGIPARFSGSGSGTEFTLTISSLQSEDFAVYYCQQYGSSPLTFGGGTKVEIK

binding [2]: binds
B13: MAdCAM Antibody Table 2 Clone 54 (antibody, human IgG1, V domains shown)
VH: QVQLVQSGAEVKKPGSSVKVSCKASGGTLSRYGVSWVRQAPGQGLEWMGGIIPIFGTTNYAQKFQGRVTITADESTSTAYMELSSLRSEDTAVYYCARDRVYYDSSGYPTWYFDLWGRGTLVTVSS
VL: EIVMTQSPATLSVSPGERATLSCRASQSVSSSYLAWYQQKPGQAPRLLIYGASTRATGIPARFSGSGSGTEFTLTISSLQSEDFAVYYCQQYGSSPITFGQGTKVEIK

binding [2]: binds
B14: MAdCAM Antibody Table 2 Clone 56 (antibody, human IgG1, V domains shown)
VH: EVQLVESGGGLVKPGGSLRLSCAASGFTFSSYWMSWVRQAPGKGLEWVSAIGTGGGTYYAAPVKGRFTISRDDSKNTLYLQMNSLKTEDTAVYYCAREWLVPYYGMDVWGQGTTVTVSS
VL: DIQMTQSPSSLSASVGDRVTITCRASQSISRWLAWYQQKPGKAPKLLIYGASNLQSGVPSRFSGSGSGTDFTLTISSLQPEDFATYYCQQSYSTPWTFGQGTKVEIK

binding [2]: binds
B15: MAdCAM Antibody Table 2 Clone 64 (antibody, human IgG1, V domains shown)
VH: EVQLLESGGGLVQPGGSLRLSCAASGFTFSNSDMNWVRQAPGKGLEWVAHIWNDGSQKYYADSVKGRFTISRDNSKNTLYLQMNSLRAEDTAVYYCARDRTDPGYSSAMDVWGQGTTVTVSS
VL: DIQMTQSPSSLSASVGDRVTITCRASQDIRNYLGWYQQKPGKAPKLLIYDASSLETGVPSRFSGSGSGTDFTLTISSLQPEDFATYYCQQATSLPLTFGGGTKVEIK

binding [2]: binds
B16: MAdCAM Antibody Table 2 Clone 66 (antibody, human IgG1, V domains shown)
VH: QVQLVQSGAEVKKPGASVKVSCKASGYTFTGHYMHWVRQAPGQGLEWMGIINPSGGSTSYAQKFQGRVTMTRDTSTSTVYMELSSLRSEDTAVYYCARDGAWFGEEYYYGMDVWGQGTTVTVSS
VL: DIQMTQSPSSLSASVGDRVTITCRASQGISNWLAWYQQKPGKAPKLLIYDASNLETGVPSRFSGSGSGTDFTLTISSLQPEDFATYYCQQYYSFPLYTFGQGTKVEIK

binding [2]: binds
B17: MAdCAM Antibody Table 2 Clone 69 (antibody, human IgG1, V domains shown)
VH: QVQLVQSGAEVKKPGASVKVSCKASGYTFTSYYMHWVRQAPGQGLEWMGIIDPSGGSTSYAQKFQGRVTMTRDTSTSTVYMELSSLRSEDTAVYYCAREEWSSGGVGYFDYWGQGTLVTVSS
VL: DIQMTQSPSSLSASVGDRVTITCRASQGISSYLAWYQQKPGKAPKLLIYATSSLQTGVPSRFSGSGSGTDFTLTISSLQPEDFATYYCQQTYSIPITFGQGTRLEIK
